The results in this text go back to patent US11891397B1, “Pyrido[4′,3′:4,5]pyrrolo[3,2-c][1,7]naphthyridin-10-one compounds as CK2 inhibitors” (KING FAISAL UNIVERSITY, priority 2023, dated 2024).

Each structure is given as a SMILES string.

Assay type in all cases: cell-based
Assay [1] relates to PC3 (prostate). Nature of the assay: In vitro cytotoxic activity MTT assay, PC3. Conditions: Homo sapiens, 96 hours exposure, read-out: IC50, 50% inhibition of cell proliferation. As to the method:
(§1) Compounds 1-16 were screened for their in vitro cytotoxic activity utilizing a 3-(4,5-dimethyl-thiazol-2-yl)-2,5-diphenyltetrazolium bromide (MTT) assay against selected cancer human cell lines consisting of PC3 (prostate), HCT116 (colon), A375 (melanoma), H1299 (lung), MIAPaCa-2 (pancreas), HL60 (leukemia), MCF7 (breast), MDA-MB-231 (breast) (T. Mosmann, J. Immunol. Meth., 1983, 65, 55-63). The cells were cultured at 37° C. in RMPI1640 medium supplemented with 10% fetal bovine serum, 50 IU/mL penicillin, and 50 μg/mL streptomycin in a 5% CO2 incubator. All cells were sub-cultured 3 times/week by trypsinisation. Viable cells were seeded and allowed to adhere for 12 h before a test drug was added in 96-well plates at an initial density of 1.0×10^5 cells/mL. Tumour cell lines were separately exposed to various concentrations of the tested compounds followed by incubation at a temperature of 37° C. during 96 h inside a medium of fresh RMPI 1640. Cells were subsequently incubated at 37° C. using MTT at 0.5 mg/mL during 4 h. After removal of supernatant, formazan crystals were dissolved in isopropanol and the optical density was measured at 570 nm. CX-4945 was used as a positive control.
For orientation: Tetrazolium assays rely on reduction of a dye to a coloured formazan, in cell work by metabolically active cells.

Assay [2] relates to HCT116 (colon). The assay is described as follows: In vitro cytotoxic activity MTT assay, HCT116. Conditions: Homo sapiens, HCT-116, 96 hours exposure, read-out: IC50, 50% inhibition of cell proliferation. As to the method:
as §1

In assay [3] the test system is A375 (melanoma). The assay is described as follows: In vitro cytotoxic activity MTT assay, A375. Conditions: Homo sapiens, A-375, 96 hours exposure, read-out: IC50, 50% inhibition of cell proliferation. As to the method: as §1
In assay [4] the test system is H1299 (lung). The assay is described as follows: In vitro cytotoxic activity MTT assay, H1299. Conditions: Homo sapiens, NCI-H1299, 96 hours exposure, read-out: IC50, 50% inhibition of cell proliferation. As to the method: as §1
Assay [5] has as its system MIAPaCa-2 (pancreas). Nature of the assay: In vitro cytotoxic activity MTT assay, MIAPaCa-2. Conditions: Homo sapiens, MIA PaCa-2, 96 hours exposure, read-out: IC50, 50% inhibition of cell proliferation. How it is done:
as §1

The subject of assay [6] is HL60 (leukemia). The assay is described as follows: In vitro cytotoxic activity MTT assay, HL60. To be noted: Homo sapiens, HL-60, 96 hours exposure, read-out: IC50, 50% inhibition of cell proliferation. As to the method: as §1
Assay [7] has as its system MCF7 (breast). The assay is described as follows: In vitro cytotoxic activity MTT assay, MCF7. Conditions: Homo sapiens, 96 hours exposure, read-out: IC50, 50% inhibition of cell proliferation. How it is done:
as §1

Assay [8] deals with MDA-MB-231 (breast). The assay is described as follows: In vitro cytotoxic activity MTT assay, MDA-MB-231. Conditions: Homo sapiens, 96 hours exposure, read-out: IC50, 50% inhibition of cell proliferation. How it is done:
as §1

`O=C(O)c1ccc2c(c1)nc(Nc1cccc(Cl)c1)c1ccncc12` [CX-4945, reference compound]: the IC50 in assay [1] is 2000 nM; in assay [2] it was 2300 nM; in assay [3], 4.1 µM; in assay [4] it was 2300 nM; in assay [5] it was 1000 nM; in assay [6], 3.7 µM. The results for the IC50 in assay [7] and in assay [8] were 9.1 µM and 6.2 µM, respectively.
